According to publication PMC7445179:
No constants are given. Whether binding was seen depends on the method and setting. Binding seen in cells or lysates may run through a third protein. Some results given as binding are weak or reduced against the parent protein; the word gives no strength.

Sequences of proteins named here, by UniProt entry; tags and fusion partners are left off.
UniProt Q13616: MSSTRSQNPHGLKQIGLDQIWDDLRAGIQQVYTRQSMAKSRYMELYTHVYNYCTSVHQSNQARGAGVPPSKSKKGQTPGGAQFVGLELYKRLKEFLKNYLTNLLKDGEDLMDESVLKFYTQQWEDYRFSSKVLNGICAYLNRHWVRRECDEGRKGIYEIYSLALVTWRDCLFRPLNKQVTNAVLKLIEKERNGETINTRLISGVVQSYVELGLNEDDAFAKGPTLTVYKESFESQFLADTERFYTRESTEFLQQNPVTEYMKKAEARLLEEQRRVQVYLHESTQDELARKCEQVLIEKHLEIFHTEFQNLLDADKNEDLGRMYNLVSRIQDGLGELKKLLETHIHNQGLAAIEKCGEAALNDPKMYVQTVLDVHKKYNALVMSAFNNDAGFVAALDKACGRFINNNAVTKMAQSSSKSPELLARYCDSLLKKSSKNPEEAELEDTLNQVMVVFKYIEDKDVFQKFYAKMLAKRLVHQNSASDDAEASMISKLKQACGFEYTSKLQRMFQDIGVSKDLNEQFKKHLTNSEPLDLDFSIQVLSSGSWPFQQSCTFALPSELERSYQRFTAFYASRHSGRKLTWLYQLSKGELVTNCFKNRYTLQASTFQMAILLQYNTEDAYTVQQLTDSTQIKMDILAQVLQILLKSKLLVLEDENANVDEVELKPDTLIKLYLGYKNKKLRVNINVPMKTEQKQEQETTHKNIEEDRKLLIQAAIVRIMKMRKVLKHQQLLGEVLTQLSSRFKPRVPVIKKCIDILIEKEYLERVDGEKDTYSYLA
UniProt Q09472: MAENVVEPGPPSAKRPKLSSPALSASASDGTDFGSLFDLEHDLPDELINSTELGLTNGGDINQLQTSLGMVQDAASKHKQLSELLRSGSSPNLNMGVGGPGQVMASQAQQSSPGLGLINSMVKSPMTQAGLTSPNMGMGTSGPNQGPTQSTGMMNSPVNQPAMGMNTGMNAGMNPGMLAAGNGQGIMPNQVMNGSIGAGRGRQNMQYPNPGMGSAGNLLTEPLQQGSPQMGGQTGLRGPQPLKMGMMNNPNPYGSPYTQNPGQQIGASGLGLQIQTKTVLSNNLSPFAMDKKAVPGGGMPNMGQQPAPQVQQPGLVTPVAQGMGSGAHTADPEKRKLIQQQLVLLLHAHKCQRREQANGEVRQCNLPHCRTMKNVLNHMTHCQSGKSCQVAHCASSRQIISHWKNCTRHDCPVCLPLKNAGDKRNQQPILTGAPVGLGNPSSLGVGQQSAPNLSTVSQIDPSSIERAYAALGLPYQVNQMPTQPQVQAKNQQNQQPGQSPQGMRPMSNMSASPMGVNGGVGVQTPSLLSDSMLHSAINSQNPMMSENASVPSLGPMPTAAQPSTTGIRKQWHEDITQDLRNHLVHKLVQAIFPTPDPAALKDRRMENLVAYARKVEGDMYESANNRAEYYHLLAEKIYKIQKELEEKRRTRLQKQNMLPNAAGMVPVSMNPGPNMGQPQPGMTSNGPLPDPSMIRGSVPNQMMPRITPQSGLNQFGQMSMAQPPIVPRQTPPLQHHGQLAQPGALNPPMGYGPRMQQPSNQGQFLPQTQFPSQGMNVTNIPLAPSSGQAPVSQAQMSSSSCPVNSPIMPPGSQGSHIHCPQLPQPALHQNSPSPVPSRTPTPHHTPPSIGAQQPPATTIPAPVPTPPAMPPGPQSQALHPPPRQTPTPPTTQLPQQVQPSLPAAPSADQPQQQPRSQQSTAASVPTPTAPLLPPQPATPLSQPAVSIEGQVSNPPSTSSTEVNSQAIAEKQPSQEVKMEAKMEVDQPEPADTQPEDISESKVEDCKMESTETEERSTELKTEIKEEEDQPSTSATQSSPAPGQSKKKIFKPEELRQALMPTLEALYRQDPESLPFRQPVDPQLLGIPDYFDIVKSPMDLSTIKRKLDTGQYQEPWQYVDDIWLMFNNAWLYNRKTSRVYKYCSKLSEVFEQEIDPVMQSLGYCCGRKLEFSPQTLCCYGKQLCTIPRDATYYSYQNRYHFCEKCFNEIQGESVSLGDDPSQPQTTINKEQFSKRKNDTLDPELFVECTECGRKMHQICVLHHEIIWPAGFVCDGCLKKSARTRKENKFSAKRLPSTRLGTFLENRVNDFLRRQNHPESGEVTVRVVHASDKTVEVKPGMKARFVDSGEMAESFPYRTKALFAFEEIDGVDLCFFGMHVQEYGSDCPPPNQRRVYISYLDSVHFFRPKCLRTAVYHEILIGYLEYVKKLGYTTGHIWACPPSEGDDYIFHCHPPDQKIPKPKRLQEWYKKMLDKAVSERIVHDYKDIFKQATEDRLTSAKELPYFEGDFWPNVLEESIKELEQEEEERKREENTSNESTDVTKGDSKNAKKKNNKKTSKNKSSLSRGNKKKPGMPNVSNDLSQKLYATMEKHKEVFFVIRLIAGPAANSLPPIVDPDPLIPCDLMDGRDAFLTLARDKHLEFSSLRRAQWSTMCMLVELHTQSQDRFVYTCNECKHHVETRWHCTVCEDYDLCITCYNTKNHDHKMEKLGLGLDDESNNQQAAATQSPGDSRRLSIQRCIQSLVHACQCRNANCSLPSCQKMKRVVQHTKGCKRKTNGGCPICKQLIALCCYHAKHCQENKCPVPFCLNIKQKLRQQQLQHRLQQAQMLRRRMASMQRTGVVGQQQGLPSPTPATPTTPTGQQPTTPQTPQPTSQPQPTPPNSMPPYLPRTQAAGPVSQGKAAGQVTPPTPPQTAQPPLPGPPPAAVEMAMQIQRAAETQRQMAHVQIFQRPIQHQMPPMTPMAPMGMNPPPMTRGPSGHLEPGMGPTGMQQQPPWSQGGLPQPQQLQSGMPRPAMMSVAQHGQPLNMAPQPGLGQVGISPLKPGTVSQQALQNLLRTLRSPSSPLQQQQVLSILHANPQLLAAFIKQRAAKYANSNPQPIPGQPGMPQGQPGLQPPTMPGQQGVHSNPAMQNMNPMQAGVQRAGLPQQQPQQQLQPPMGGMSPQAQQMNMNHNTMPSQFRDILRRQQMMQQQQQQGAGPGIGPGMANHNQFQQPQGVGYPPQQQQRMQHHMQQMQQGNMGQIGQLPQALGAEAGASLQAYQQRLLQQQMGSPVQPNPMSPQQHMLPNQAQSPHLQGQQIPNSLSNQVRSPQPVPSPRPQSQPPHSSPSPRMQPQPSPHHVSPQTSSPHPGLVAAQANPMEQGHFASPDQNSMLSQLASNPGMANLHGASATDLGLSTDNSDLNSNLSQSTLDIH

What was measured:
[1] = target: Cullin1 (human (endogenous in MCF7)) (UniProt Q13616); experiment: co-IP; endogenous proteins in NP40 lysate (50 mM Tris-Cl pH 8.0, 150 mM NaCl, 1% NP40); IP with antibodies against ubiquitin or Cullin1, blot for ERRβ; anti-IgG as negative control; Fig. 1c (cell line not stated) and Fig. 3d (MCF7, untreated or 0.3 µM MLN4924 for 24 h)
[2] = target: transcription co-activator p300 (human (endogenous in MCF7)) (UniProt Q09472); experiment: co-IP; endogenous proteins in NP40 lysate of MCF7 cells, untreated or treated with 1 µM MLN4924; IP with p300 antibody, blot for ERRβ and p300; anti-IgG as negative control

B1: Estrogen-related receptor beta (ERRβ) (protein, UniProt O95718 1-433)
chain: MSSDDRHLGSSCGSFIKTEPSSPSSGIDALSHHSPSGSSDASGGFGLALGTHANGLDSPPMFAGAGLGGTPCRKSYEDCASGIMEDSAIKCEYMLNAIPKRLCLVCGDIASGYHYGVASCEACKAFFKRTIQGNIEYSCPATNECEITKRRRKSCQACRFMKCLKVGMLKEGVRLDRVRGGRQKYKRRLDSESSPYLSLQISPPAKKPLTKIVSYLLVAEPDKLYAMPPPGMPEGDIKALTTLCDLADRELVVIIGWAKHIPGFSSLSLGDQMSLLQSAWMEILILGIVYRSLPYDDKLVYAEDYIMDEEHSRLAGLLELYRAILQLVRRYKKLKVEKEEFVTLKALALANSDSMYIEDLEAVQKLQDLLHEALQDYELSQRHEEPWRTGKLLLTLPLLRQTAAKAVQHFYSVKLQGKVPMHKLFLEMLEAKV
[1]
  binding: binds
[2]
  binding: binds
